# Test results taken from the supplement of paper PMC8728848.
# The list shows a part of the results.
# B1: Epa2 (Candida glabrata) (protein)
# chain: MGSSHHHHHHSSGLVPRGSHMASSKDPTSFPMGCSPQVLKTQPGLAVKLYSYGHPVPGCAYNTYQYPDFPRSGYKKERKLADITGVNGRIDIDLKPNDPCRVLSGNLPSNYNYQNTLTYTNFTMILYGYFQPKVTGYHTFNLEADDLLFMNLGAGNAFDCCRAESTLDNFGNYQSYSIWGTDKATADLTVFLVSGIYYPIRLFYVNRDNNAVLDFSFSTEFNKEIIHDFTSYFFSASDEEQCPGNI
# Tests used:
# Experiment in all cases: glycan array binding signal (z-score within array); higher = stronger binding
# Details in all cases: glycan notation: IUPAC condensed, linker removed
# [1] = target: Fuc(a1-2)Gal
# Outline: (§1)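 The Consortium for Functional Glycomics database supplied 3228 glycan arrays, of which those lacking an available protein sequence were dropped. The binding signal, a within-array Z-score, was averaged across arrays of the same protein sequence and across linkers. Negative scores can be read as non-binding.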
# [2] = target: Fuc(a1-2)Gal(b1-3)GalNAc
# Outline: as §1
# [3] = target: Fuc(a1-2)Gal(b1-3)GalNAc(a1-3)[Fuc(a1-2)]Gal(b1-4)Glc
# Outline: as §1
# [4] = target: Fuc(a1-2)Gal(b1-3)GalNAc(a1-3)[Fuc(a1-2)]Gal(b1-4)GlcNAc
# Outline: as §1
# [5] = target: Fuc(a1-2)Gal(b1-3)GalNAc(b1-3)Gal
# Outline: as §1
# [6] = target: Fuc(a1-2)Gal(b1-3)GalNAc(b1-3)Gal(a1-4)Gal(b1-4)Glc
# Outline: as §1
# [7] = target: Fuc(a1-2)Gal(b1-3)GalNAc(b1-4)[Neu5Ac(a2-3)]Gal(b1-4)Glc
# Outline: as §1
# [8] = target: Fuc(a1-2)Gal(b1-3)GlcNAc
# Outline: as §1
# [9] = target: Fuc(a1-2)Gal(b1-3)GlcNAc(b1-2)Man(a1-3)[Fuc(a1-2)Gal(b1-3)GlcNAc(b1-2)Man(a1-6)]Man(b1-4)GlcNAc(b1-4)GlcNAc
# Outline: as §1
# [10] = target: Fuc(a1-2)Gal(b1-3)GlcNAc(b1-2)Man(a1-3)[Fuc(a1-2)Gal(b1-3)GlcNAc(b1-2)Man(a1-6)]Man(b1-4)GlcNAc(b1-4)[Fuc(a1-6)]GlcNAc
# Outline: as §1
# [11] = target: Fuc(a1-2)Gal(b1-3)GlcNAc(b1-3)Gal(b1-4)Glc
# Outline: as §1
# [12] = target: Fuc(a1-2)Gal(b1-3)GlcNAc(b1-3)GalNAc
# Outline: as §1
# [13] = target: Fuc(a1-2)Gal(b1-3)GlcNAc(b1-3)[Fuc(a1-2)Gal(b1-3)GlcNAc(b1-6)]GalNAc
# Outline: as §1
# [14] = target: Fuc(a1-2)Gal(b1-3)GlcNAc(b1-3)[Gal(b1-4)GlcNAc(b1-6)]Gal(b1-4)Glc
# Outline: as §1
# [15] = target: Fuc(a1-2)Gal(b1-3)GlcNAc(b1-3)[Neu5Ac(a2-6)Gal(b1-4)GlcNAc(b1-6)]Gal(b1-4)Glc
# Outline: as §1
# [16] = target: Fuc(a1-2)Gal(b1-3)GlcNAc6S
# Outline: as §1
# [17] = target: Fuc(a1-2)Gal(b1-3)[Fuc(a1-4)]GlcNAc
# Outline: as §1
# [18] = target: Fuc(a1-2)Gal(b1-3)[Fuc(a1-4)]GlcNAc(b1-2)Man(a1-3)[Fuc(a1-2)Gal(b1-3)[Fuc(a1-4)]GlcNAc(b1-2)Man(a1-3)]Man(b1-4)GlcNAc(b1-4)GlcNAc
# Outline: as §1
# [19] = target: Fuc(a1-2)Gal(b1-3)[Fuc(a1-4)]GlcNAc(b1-2)Man(a1-3)[Fuc(a1-2)Gal(b1-3)[Fuc(a1-4)]GlcNAc(b1-2)Man(a1-6)]Man(b1-4)GlcNAc(b1-4)[Fuc(a1-6)]GlcNAc(b1-4)[Fuc(a1-6)]GlcNAc
# Outline: as §1
# [20] = target: Fuc(a1-2)Gal(b1-3)[Fuc(a1-4)]GlcNAc(b1-3)[Fuc(a1-3)[Gal(b1-4)]GlcNAc(b1-6)]Gal(b1-4)Glc
# Outline: as §1
# [21] = target: Fuc(a1-2)Gal(b1-3)[Fuc(a1-4)]GlcNAc(b1-3)[Gal(b1-4)GlcNAc(b1-6)]Gal(b1-4)Glc
# Outline: as §1
# [22] = target: Fuc(a1-2)Gal(b1-4)Fuc(a1-3)]GlcNAc(b1-2)Man(a1-3)[Fuc(a1-2)Gal(b1-4)[Fuc(a1-3)]GlcNAc(b1-2)Man(a1-6)]Man(b1-4)GlcNAc(b1-4)GlcNAc
# Outline: as §1
# [23] = target: Fuc(a1-2)Gal(b1-4)Glc
# Outline: as §1
# [24] = target: Fuc(a1-2)Gal(b1-4)Glc6S
# Outline: as §1
# [25] = target: Fuc(a1-2)Gal(b1-4)GlcNAc
# Outline: as §1
# [26] = target: Fuc(a1-2)Gal(b1-4)GlcNAc(b1-2)Man
# Outline: as §1
# [27] = target: Fuc(a1-2)Gal(b1-4)GlcNAc(b1-2)Man(a1-3)[Fuc(a1-2)Gal(b1-4)GlcNAc(b1-2)Man(a1-6)]Man(b1-4)GlcNAc(b1-4)GlcNAc
# Outline: as §1
# [28] = target: Fuc(a1-2)Gal(b1-4)GlcNAc(b1-2)Man(a1-3)[Fuc(a1-2)Gal(b1-4)GlcNAc(b1-2)Man(a1-6)]Man(b1-4)GlcNAc(b1-4)[Fuc(a1-6)]GlcNAc
# Outline: as §1
# [29] = target: Fuc(a1-2)Gal(b1-4)GlcNAc(b1-2)[Fuc(a1-2)Gal(b1-4)GlcNAc(b1-4)]Man(a1-3)[Fuc(a1-2)Gal(b1-4)GlcNAc(b1-2)Man(a1-6)]Man(b1-4)GlcNAc(b1-4)GlcNAc
# Outline: as §1
# [30] = target: Fuc(a1-2)Gal(b1-4)GlcNAc(b1-3)Gal(b1-4)GlcNAc
# Outline: as §1
binder,measurement,setting,value
B1,glycan array binding signal (z-score),[1],0.175
same,glycan array binding signal (z-score),[2],-0.313
same,glycan array binding signal (z-score),[3],-0.114
same,glycan array binding signal (z-score),[4],-0.515
same,glycan array binding signal (z-score),[5],1.21
same,glycan array binding signal (z-score),[6],-0.162
same,glycan array binding signal (z-score),[7],-0.547
same,glycan array binding signal (z-score),[8],-0.642
same,glycan array binding signal (z-score),[9],0.111
same,glycan array binding signal (z-score),[10],-0.074
same,glycan array binding signal (z-score),[11],-0.378
same,glycan array binding signal (z-score),[12],-0.502
same,glycan array binding signal (z-score),[13],0.161
same,glycan array binding signal (z-score),[14],-0.359
same,glycan array binding signal (z-score),[15],-0.78
same,glycan array binding signal (z-score),[16],-0.103
same,glycan array binding signal (z-score),[17],0.672
same,glycan array binding signal (z-score),[18],0.657
same,glycan array binding signal (z-score),[19],0.704
same,glycan array binding signal (z-score),[20],0.365
same,glycan array binding signal (z-score),[21],1.01
same,glycan array binding signal (z-score),[22],0.533
same,glycan array binding signal (z-score),[23],-0.711
same,glycan array binding signal (z-score),[24],-0.085
same,glycan array binding signal (z-score),[25],-0.046
same,glycan array binding signal (z-score),[26],0.755
same,glycan array binding signal (z-score),[27],-0.505
same,glycan array binding signal (z-score),[28],-0.52
same,glycan array binding signal (z-score),[29],0.385
same,glycan array binding signal (z-score),[30],0.003

# Exported bar-delimited: part of the list above.
binder | measurement | setting | value
B1 | glycan array binding signal (z-score) | [7] | -0.547
same | glycan array binding signal (z-score) | [8] | -0.642
